# No constants are given. Whether binding was seen depends on the method and setting. Binding seen in cells or lysates may run through a third protein. Some results given as binding are weak or reduced against the parent protein; the word gives no strength.
# Amino acid sequences for entries named in this document (tags omitted).
# UniProt Q6ZPV2: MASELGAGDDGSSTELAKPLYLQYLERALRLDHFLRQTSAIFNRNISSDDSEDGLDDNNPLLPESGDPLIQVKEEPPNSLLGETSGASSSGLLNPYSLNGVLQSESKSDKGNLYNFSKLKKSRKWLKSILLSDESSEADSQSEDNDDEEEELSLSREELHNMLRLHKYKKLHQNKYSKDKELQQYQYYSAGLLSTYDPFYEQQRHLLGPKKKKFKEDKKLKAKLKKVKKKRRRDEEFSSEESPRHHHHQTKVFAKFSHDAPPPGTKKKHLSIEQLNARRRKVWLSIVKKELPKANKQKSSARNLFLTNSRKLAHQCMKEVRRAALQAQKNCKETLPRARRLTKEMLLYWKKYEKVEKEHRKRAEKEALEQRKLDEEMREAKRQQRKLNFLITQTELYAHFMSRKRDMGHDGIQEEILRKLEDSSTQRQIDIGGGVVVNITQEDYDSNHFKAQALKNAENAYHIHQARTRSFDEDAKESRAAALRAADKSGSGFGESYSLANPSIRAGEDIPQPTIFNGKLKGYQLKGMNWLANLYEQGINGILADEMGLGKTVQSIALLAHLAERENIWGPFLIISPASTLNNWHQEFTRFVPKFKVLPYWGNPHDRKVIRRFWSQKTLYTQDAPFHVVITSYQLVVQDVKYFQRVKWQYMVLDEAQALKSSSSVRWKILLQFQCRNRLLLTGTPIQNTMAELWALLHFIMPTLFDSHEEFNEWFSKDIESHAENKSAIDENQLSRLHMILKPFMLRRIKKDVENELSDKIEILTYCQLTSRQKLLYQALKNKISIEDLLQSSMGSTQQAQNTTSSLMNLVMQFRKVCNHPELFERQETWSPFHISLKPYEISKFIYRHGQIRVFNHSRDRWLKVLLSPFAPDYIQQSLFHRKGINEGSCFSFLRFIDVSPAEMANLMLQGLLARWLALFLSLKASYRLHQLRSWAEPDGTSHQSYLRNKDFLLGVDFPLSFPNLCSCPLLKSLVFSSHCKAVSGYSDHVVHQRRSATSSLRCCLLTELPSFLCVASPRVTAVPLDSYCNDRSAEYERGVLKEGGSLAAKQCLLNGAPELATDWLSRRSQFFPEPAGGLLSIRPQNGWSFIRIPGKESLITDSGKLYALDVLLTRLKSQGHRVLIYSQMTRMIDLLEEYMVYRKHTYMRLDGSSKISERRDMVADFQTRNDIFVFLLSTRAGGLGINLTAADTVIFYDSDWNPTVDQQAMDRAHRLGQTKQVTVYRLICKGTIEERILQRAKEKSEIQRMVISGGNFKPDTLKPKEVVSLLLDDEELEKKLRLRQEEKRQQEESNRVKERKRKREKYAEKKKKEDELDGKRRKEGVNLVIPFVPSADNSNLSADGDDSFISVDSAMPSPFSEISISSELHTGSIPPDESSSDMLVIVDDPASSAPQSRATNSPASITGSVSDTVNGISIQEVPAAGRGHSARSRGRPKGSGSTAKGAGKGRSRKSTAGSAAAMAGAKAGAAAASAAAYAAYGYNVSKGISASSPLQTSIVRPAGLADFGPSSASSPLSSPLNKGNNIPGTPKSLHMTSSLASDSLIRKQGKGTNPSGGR
# Biological target: T1, OLIG2 (mouse (endogenous in cultured mouse OL lineage cells)) (UniProt Q9EQW6)
# T1 sequence: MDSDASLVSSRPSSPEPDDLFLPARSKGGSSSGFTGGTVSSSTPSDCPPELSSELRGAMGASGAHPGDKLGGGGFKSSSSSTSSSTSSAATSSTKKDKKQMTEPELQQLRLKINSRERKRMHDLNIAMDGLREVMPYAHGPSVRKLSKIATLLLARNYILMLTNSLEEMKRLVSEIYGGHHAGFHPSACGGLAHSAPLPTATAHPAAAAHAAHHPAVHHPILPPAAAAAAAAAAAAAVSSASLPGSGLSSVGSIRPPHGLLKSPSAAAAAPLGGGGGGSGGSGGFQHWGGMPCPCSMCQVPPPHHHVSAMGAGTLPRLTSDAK
# Assay: proximity ligation; Duolink PLA kit on fixed cultured mouse OPs, probe antibodies against INO80 and OLIG2; anti-SOX10 as positive and anti-PDGFRA as negative control
substance,measurement,value
INO80 (from UniProt Q6ZPV2 1-1559),binding,binds

# Reference: article PMC12012327
